Values of other authors in publication PMC3445653 (Neuropharmacology, 2012).

Tests used:
Conditions in all cases: ref Komander et al., 2003; Ling et al., 2002; cited from earlier work
[1] = system: Ca^2+/calmodulin-dependent protein kinase II (CaMKII)
[2] = system: cAMP-dependent protein kinase (PKA)
[3] = system: PDK1

CN[C@@H]1C[C@H]2O[C@@](C)([C@@H]1OC)n1c3ccccc3c3c4c(c5c6ccccc6n2c5c31)C(=O)NC4 [staurosporine]
low nanomolar concentrations: inhibition of CaMKII [1] | inhibition of PKA [2] | inhibition of PDK1 [3]
